PubChem BioAssay AID504774 | Drosophila RNAi Screening Center, 2011

Assay: 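Fly genes whose loss alters survival after alkylation damage to DNA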 (primary screen)
System: Drosophila Kc167 cells
Reagent: long dsRNA against Drosophila genes, about 0.25 µg dsRNA per well
Time to read-out: about 6 days: 3 days knock-down, then 3 days with or without MMS
Challenge: methyl methanesulphonate 0.004% (w/v) for 3 days after knock-down
Read-out: 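ATP-dependent luminescence as a measure of live cells in MMS-exposed wells, quantile normalised within each plate, with replicate values also given as a mean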
Direction: mean viability with MMS: higher = more surviving cells after MMS
In all, the deposit lists about 23,000 reagents; shown is an unselected part of those with a known target gene and a result. 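Values are quantile-normalised luminescence on an arbitrary scale; higher means more cells surviving MMS.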 A plus sign joins genes that one reagent is predicted to hit. Further read-outs or replicates are left out here. Reagent sequences are not shown.

| mean viability with MMS | gene | amplicon |
| --- | --- | --- |
| 3.72e6 | CG11638 | DRSC18167 |
| 3.76e6 | CG11638 | DRSC18640 |
| 3.56e6 | CheB98a | DRSC14882 |
| 3.50e6 | CG11123 | DRSC06040 |
| 3.59e6 | CG13171 | DRSC06299 |
| 3.77e6 | CG34423 + Mthfs | DRSC04088 |
| 3.22e6 | Eno | DRSC00750 |
| 3.82e6 | l(3)73Ah | DRSC11359 |
| 3.63e6 | CG31776 | DRSC00716 |
| 3.44e6 | CG30379 | DRSC05070 |
| 3.67e6 | CG9459 | DRSC16496 |
| 3.52e6 | CG14495 | DRSC06466 |
| 2.97e6 | Rbp | DRSC15724 |
| 3.49e6 | Rbp | DRSC15726 |
| 3.50e6 | CG33080 | DRSC18080 |
| 3.58e6 | CG33080 | DRSC18081 |
| 3.77e6 | CG33080 | DRSC18285 |
| 3.66e6 | CG15254 | DRSC01870 |
| 3.31e6 | CG15254 | DRSC21765 |
| 3.75e6 | CG9686 | DRSC18439 |
| 3.63e6 | CG17192 | DRSC15186 |
| 3.63e6 | CG31675 | DRSC01825 |
| 3.55e6 | CG5321 | DRSC19940 |
| 3.43e6 | CG5321 | DRSC22802 |
| 3.63e6 | Cpr30F | DRSC02908 |
| 3.49e6 | Ufl1 | DRSC12527 |
| 3.66e6 | CG32645 | DRSC19683 |
| 3.52e6 | CG32645 | DRSC19889 |
| 3.50e6 | CG10803 | DRSC17763 |
| 3.71e6 | CG3081 | DRSC18571 |
| 3.60e6 | CG6938 | DRSC10752 |
| 3.51e6 | CG34248 | DRSC09426 |
| 3.38e6 | Crg-1 | DRSC22882 |
| 3.55e6 | CG9782 | DRSC19145 |
| 3.62e6 | CG9782 | DRSC20209 |
| 3.72e6 | Alp13 | DRSC15781 |
| 3.58e6 | CR14499 (retired record) | DRSC06470 |
| 3.60e6 | CG43707 | DRSC00280 |
| 2.92e6 | CG43707 | DRSC22869 |
| 3.70e6 | CG6051 | DRSC15956 |
| 3.37e6 | CG10405 | DRSC14238 |
| 3.81e6 | slp1 | DRSC00835 |
| 3.43e6 | fest | DRSC07349 |
| 3.53e6 | CG9338 | DRSC03213 |
| 3.49e6 | sd | DRSC20370 |
| 3.45e6 | sd | DRSC21712 |

Sorted by “mean viability with MMS” (highest first): some entries from above.
| mean viability with MMS | gene | amplicon |
| --- | --- | --- |
| 3.81e6 | slp1 | DRSC00835 |
| 3.53e6 | CG9338 | DRSC03213 |
| 3.49e6 | sd | DRSC20370 |
| 3.45e6 | sd | DRSC21712 |
| 3.43e6 | fest | DRSC07349 |
| 3.37e6 | CG10405 | DRSC14238 |
